Measurements: doi:10.1101/2021.05.14.443827
No constants are given. Whether binding was seen depends on the method and setting. Some binding calls cover weakened binding; strength is not graded here.

Protein sequences, listed by entry. Tags and fused reporters are not part of them.
UniProt P02941, whole entry: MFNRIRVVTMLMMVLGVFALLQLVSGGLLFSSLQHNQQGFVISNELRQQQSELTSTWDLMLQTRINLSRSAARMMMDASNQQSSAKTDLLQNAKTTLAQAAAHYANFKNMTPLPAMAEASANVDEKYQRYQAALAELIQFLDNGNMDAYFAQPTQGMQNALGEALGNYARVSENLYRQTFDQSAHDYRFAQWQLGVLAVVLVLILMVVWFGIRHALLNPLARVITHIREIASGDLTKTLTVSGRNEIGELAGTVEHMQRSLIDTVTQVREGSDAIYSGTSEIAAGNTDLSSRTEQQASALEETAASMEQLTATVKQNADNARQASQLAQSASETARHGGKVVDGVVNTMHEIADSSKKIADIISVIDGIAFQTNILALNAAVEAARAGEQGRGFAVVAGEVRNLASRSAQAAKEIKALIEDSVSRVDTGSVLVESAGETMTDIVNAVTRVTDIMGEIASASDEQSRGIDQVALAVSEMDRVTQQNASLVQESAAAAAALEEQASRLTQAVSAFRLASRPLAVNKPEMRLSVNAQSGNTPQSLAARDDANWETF

Molecular target: CheM-T18 (Salmonella enterica serovar Typhimurium) (UniProt P02941)
Assay: two-hybrid

## CheM-T18 (from UniProt P02941 1-553)
  binding: binds
